Measurements reported in PubChem BioAssay AID686938 (Drosophila RNAi Screening Center, 2013).
The deposit covers about 23,000 reagents; below is a random part of those with a known target gene and a result. Of all reagents, 75 (0.33%) got an active call. 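Raw plate signals without normalisation; calls rest on plate z-scores that were not deposited; ratio present for only 364 wells.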 The numbers tell different reagents against one gene apart. Names joined by + are all predicted targets of the reagent. Not given: the dose of the treatment.

- Assay: 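Looking for CRAC channel components and the factors controlling them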 (primary screen)
- Cells: Drosophila S2R+ cells
- Reagents: long dsRNA against Drosophila genes, about 0.25 µg dsRNA per well, roughly 10,000 cells
- Timing: 5 days of knock-down before the calcium assay
- Challenge: thapsigargin (SERCA pump blocker) to empty calcium stores; entry signal taken 4 min after adding it
- Measured: 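Duplicate raw fluo-4 intensities per well from a plate reader, at rest and four minutes after thapsigargin emptied calcium stores; entry-to-rest ratio filled for only some wells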
- Scale: calcium entry signal: higher = stronger calcium signal after store depletion; entry to resting ratio: higher = more calcium entry relative to resting level; resting calcium signal: higher = higher resting calcium signal
- Units: calcium entry signal in fluorescence units; resting calcium signal in fluorescence units
- Hit rule: 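Called when the plate z-score of the entry-to-rest ratio, mean of duplicates, falls below −3; wells with low overall dye signal (Fmax z below −2) or more than five off-targets excluded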
- Calls: active = strongly reduced calcium entry; inactive = no strong reduction

The opening 3 records, ahead of the listing:
gene knocked down | reagent | calcium entry signal, replicate 1 | calcium entry signal, replicate 2 | entry to resting ratio | resting calcium signal, replicate 1 | resting calcium signal, replicate 2 | Outcome
Gr98c (Gustatory receptor 98c) | 1 | 3.92e7 | 6.41e7 | – | 1.92e7 | 3.43e7 | inactive
CG14440 | 1 | 3.36e7 | 4.94e7 | – | 1.72e7 | 2.37e7 | inactive
CG14440 | 2 | 4.69e7 | 3.02e7 | – | 2.30e7 | 1.45e7 | inactive

Main list, from the start:
gene knocked down | reagent | calcium entry signal, replicate 1 | calcium entry signal, replicate 2 | entry to resting ratio | resting calcium signal, replicate 1 | resting calcium signal, replicate 2 | Outcome
Gr98c (Gustatory receptor 98c) | 1 | 3.92e7 | 6.41e7 | – | 1.92e7 | 3.43e7 | inactive
CG14440 | 1 | 3.36e7 | 4.94e7 | – | 1.72e7 | 2.37e7 | inactive
CG14440 | 2 | 4.69e7 | 3.02e7 | – | 2.30e7 | 1.45e7 | inactive
CG14440 | 3 | 4.80e7 | 3.77e7 | – | 2.39e7 | 1.71e7 | inactive
Smyd4-2 (SET and MYND domain containing, class 4, member 2) | 1 | 3.03e7 | 3.33e7 | – | 1.65e7 | 1.49e7 | inactive
CG17572 | 1 | 4.30e7 | 4.52e7 | – | 2.03e7 | 1.94e7 | inactive
Faf2 (Fas-associated factor 2) | 1 | 3.87e7 | – | – | 1.63e7 | – | inactive
CG31091 | 1 | 4.38e7 | 6.04e7 | – | 2.13e7 | 2.48e7 | inactive
l(2)k05911 (lethal (2) k05911) | 1 | 4.32e7 | 3.05e7 | – | 2.44e7 | 1.56e7 | inactive
nol (no optic lobe) | 1 | 3.64e7 | 3.40e7 | – | 2.32e7 | 1.63e7 | inactive
Pez | 1 | 3.11e7 | 3.89e7 | – | 1.72e7 | 1.81e7 | inactive
CG31809 | 1 | 2.33e7 | 4.11e7 | – | 1.51e7 | 1.78e7 | inactive
ppk20 (pickpocket 20) | 1 | 3.66e7 | 5.27e7 | – | 1.84e7 | 1.82e7 | inactive
Ube4A (Ubiquitination factor E4A) | 1 | 4.40e7 | – | – | 2.60e7 | – | inactive
Usp15-31 (Ubiquitin specific protease 15/31) | 1 | 4.64e7 | – | – | 2.29e7 | – | inactive
Usp15-31 (Ubiquitin specific protease 15/31) | 2 | 3.81e7 | 4.28e7 | – | 2.03e7 | 2.24e7 | inactive
Cat (Catalase) | 1 | 2.33e7 | 5.13e7 | – | 1.37e7 | 2.19e7 | inactive
CG15042 | 1 | 3.94e7 | 3.36e7 | – | 2.06e7 | 1.56e7 | inactive
Sgs5 (Salivary gland secretion 5) | 1 | 3.02e7 | 6.34e7 | – | 1.79e7 | 7.21e7 | inactive
ush (u-shaped) | 1 | 3.76e7 | – | – | 2.50e7 | – | inactive
DENR (Density regulated protein) | 1 | 2.92e7 | 3.12e7 | – | 1.38e7 | 1.47e7 | inactive
CG30460 | 1 | 4.17e7 | 5.35e7 | – | 1.77e7 | 2.34e7 | inactive
CG30460 | 2 | 2.35e7 | 2.86e7 | – | 1.28e7 | 1.63e7 | inactive
CG30460 | 3 | 4.27e7 | 3.27e7 | – | 2.04e7 | 1.50e7 | inactive
CG3323 | 1 | 3.07e7 | 2.94e7 | – | 1.51e7 | 1.51e7 | inactive
CG18135 | 1 | 4.31e7 | 5.16e7 | – | 2.09e7 | 3.25e7 | inactive
His3:CG33818 + His3:CG33857 + His3:CG33806 + 20 more | 1 | 1.44e7 | 1.55e7 | – | 1.14e7 | 9.80e6 | inactive
ND-18 (NADH dehydrogenase (ubiquinone) 18 kDa subunit) | 1 | 4.80e7 | 4.43e7 | – | 2.45e7 | 1.96e7 | inactive
Pka-R2 (Protein kinase, cAMP-dependent, regulatory subunit type 2) | 1 | 2.59e7 | 2.57e7 | – | 1.22e7 | 1.08e7 | inactive
CG2790 | 1 | 2.75e7 | – | – | 1.41e7 | – | inactive
RpS14a (Ribosomal protein S14a) | 1 | 6.11e6 | 7.43e6 | – | 5.20e6 | 5.85e6 | inactive
CG4741 | 1 | 4.37e7 | 4.20e7 | – | 2.13e7 | 2.05e7 | inactive
CG4741 | 2 | 4.09e7 | 4.38e7 | – | 2.08e7 | 2.05e7 | inactive
upd3 (unpaired 3) | 1 | 3.88e7 | 3.73e7 | – | 1.99e7 | 1.55e7 | inactive
upd3 (unpaired 3) | 2 | 3.79e7 | 3.36e7 | – | 2.06e7 | 1.50e7 | inactive
upd3 (unpaired 3) | 3 | 3.19e7 | 2.94e7 | – | 1.92e7 | 1.44e7 | inactive
Etl1 | 1 | 4.46e7 | – | – | 2.22e7 | – | inactive
br (broad) | 1 | 2.58e7 | 4.16e7 | – | 1.39e7 | 1.70e7 | inactive
br (broad) | 2 | 3.88e7 | 5.32e7 | 2 | 1.97e7 | 2.07e7 | inactive
br (broad) | 3 | 5.39e7 | 3.74e7 | 1.9 | 2.77e7 | 1.90e7 | inactive
br (broad) | 4 | 3.66e7 | 4.37e7 | 2.1 | 1.78e7 | 1.71e7 | inactive
Fatp3 (Fatty acid transport protein 3) | 1 | 3.27e7 | 3.82e7 | – | 1.81e7 | 1.79e7 | inactive
CadN (Cadherin-N) | 1 | 5.12e7 | 3.94e7 | – | 2.26e7 | 1.80e7 | inactive
CG9213 | 1 | 2.72e7 | 3.25e7 | – | 1.37e7 | 1.50e7 | inactive
CG8006 | 1 | 3.62e7 | 2.22e7 | – | 2.49e7 | 1.06e7 | inactive
CG4374 | 1 | 3.37e7 | 4.73e7 | – | 1.85e7 | 1.97e7 | inactive
Cyp4aa1 (Cytochrome P450 4aa1) | 1 | 2.78e7 | 2.84e7 | – | 1.34e7 | 1.38e7 | inactive
Sodq (Sodesque) | 1 | 3.58e7 | 5.47e7 | – | 1.90e7 | 2.55e7 | inactive
CR4575 (pseudo) | 1 | 3.27e7 | 4.71e7 | – | 1.65e7 | 2.26e7 | inactive
hdly (hadley) | 1 | 3.50e7 | 4.36e7 | – | 5.91e7 | 1.80e7 | inactive
dyl (dusky-like) | 1 | 3.68e7 | 3.61e7 | – | 2.66e7 | 1.66e7 | inactive
dyl (dusky-like) | 2 | 3.17e7 | 3.34e7 | – | 1.81e7 | 1.71e7 | inactive
ClpX (Caseinolytic protease chaperone subunit) | 1 | 3.03e7 | 2.99e7 | – | 1.35e7 | 1.14e7 | inactive
Nlg1 (Neuroligin 1) | 1 | 3.63e7 | 3.91e7 | – | 1.73e7 | 2.07e7 | inactive
Nlg1 (Neuroligin 1) | 2 | 4.15e7 | 3.21e7 | – | 2.06e7 | 1.60e7 | inactive
Nlg1 (Neuroligin 1) | 3 | 4.61e7 | 3.69e7 | – | 2.23e7 | 1.83e7 | inactive
Nlg1 (Neuroligin 1) | 4 | 4.29e7 | 3.01e7 | – | 2.11e7 | 1.52e7 | inactive
CG34404 | 1 | 4.06e7 | 5.69e7 | – | 1.89e7 | 6.73e7 | inactive
CG34404 | 2 | 3.88e7 | 4.73e7 | – | 1.57e7 | 1.97e7 | inactive
